Results on one substance are retold here after PMC10344862.

The chains behind the UniProt entries cited, without tags or fusion partners. Residues count along the entry.
UniProt Q9Y6N7, residues 26-1651: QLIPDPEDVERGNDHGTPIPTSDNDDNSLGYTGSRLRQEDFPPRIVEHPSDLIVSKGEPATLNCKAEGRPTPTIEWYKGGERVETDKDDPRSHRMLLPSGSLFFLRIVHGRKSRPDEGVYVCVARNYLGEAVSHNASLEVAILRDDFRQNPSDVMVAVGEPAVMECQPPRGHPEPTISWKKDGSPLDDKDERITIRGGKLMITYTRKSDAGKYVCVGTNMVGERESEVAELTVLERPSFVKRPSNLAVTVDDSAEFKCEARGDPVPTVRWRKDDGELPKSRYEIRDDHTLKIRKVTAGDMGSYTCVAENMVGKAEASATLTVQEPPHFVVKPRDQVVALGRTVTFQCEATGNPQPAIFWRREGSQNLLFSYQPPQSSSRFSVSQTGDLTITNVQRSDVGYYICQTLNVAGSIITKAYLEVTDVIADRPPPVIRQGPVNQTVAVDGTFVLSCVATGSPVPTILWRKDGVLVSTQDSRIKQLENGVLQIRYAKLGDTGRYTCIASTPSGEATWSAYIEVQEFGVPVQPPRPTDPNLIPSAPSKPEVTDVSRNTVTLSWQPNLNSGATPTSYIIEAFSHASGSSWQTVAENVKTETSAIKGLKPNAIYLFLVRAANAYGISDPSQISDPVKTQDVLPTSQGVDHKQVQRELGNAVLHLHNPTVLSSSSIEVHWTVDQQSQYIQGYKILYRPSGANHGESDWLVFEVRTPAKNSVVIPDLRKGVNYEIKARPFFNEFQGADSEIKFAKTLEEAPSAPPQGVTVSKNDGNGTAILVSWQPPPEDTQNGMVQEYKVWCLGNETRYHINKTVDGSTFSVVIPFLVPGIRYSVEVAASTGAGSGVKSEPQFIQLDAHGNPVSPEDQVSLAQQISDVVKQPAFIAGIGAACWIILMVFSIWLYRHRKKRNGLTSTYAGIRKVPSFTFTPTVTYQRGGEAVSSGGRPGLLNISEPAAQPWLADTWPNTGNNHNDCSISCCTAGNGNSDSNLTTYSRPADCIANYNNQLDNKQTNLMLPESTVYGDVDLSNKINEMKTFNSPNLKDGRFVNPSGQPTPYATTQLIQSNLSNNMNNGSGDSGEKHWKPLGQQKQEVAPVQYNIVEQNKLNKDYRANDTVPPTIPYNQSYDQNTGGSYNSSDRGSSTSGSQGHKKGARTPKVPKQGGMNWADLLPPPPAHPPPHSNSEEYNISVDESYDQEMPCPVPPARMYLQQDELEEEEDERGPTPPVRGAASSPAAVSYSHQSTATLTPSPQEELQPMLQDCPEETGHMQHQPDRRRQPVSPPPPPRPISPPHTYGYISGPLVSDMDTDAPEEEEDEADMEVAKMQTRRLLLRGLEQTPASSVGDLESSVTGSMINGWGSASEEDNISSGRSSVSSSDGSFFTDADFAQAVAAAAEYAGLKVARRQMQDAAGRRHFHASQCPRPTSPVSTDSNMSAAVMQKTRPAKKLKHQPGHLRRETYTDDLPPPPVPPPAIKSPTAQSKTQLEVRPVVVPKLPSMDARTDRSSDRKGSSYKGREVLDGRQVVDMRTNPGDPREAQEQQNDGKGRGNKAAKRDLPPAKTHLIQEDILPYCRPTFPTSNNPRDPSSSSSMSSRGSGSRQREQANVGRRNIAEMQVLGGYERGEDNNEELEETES
UniProt Q8TD19: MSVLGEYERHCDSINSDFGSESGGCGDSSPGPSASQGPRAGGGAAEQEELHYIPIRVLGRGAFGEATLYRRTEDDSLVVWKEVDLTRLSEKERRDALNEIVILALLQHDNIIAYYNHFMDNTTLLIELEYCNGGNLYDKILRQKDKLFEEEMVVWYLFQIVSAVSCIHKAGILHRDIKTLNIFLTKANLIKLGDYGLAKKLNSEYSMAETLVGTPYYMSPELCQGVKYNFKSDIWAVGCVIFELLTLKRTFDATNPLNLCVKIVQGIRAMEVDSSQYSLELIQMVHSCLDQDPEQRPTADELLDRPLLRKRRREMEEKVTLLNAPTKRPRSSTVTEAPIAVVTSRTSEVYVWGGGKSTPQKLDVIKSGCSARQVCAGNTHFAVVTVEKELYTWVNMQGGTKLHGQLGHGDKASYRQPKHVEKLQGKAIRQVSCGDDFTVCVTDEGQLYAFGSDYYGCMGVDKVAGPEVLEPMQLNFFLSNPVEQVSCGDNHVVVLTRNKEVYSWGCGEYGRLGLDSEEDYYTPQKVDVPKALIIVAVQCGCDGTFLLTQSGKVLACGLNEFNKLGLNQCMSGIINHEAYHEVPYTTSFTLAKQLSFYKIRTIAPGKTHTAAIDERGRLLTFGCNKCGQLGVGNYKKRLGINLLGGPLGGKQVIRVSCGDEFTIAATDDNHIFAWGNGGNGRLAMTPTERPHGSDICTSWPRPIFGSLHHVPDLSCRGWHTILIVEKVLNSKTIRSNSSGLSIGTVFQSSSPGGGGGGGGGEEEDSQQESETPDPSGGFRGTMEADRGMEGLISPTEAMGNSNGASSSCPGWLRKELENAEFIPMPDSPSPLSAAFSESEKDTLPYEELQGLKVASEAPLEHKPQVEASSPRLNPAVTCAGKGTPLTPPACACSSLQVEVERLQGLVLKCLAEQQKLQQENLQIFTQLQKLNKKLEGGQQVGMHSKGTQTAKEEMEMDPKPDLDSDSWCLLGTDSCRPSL

No constants are given. Whether binding was seen depends on the method and setting. Binding seen in cells or lysates may run through a third protein. These calls come from enrichment with a bait or labelling near it, and not all partners need be listed.

In this assay the target is ROBO1 (source not told: bait of the mass spectrometry analysis; partner in the co-IP of Fig. 2E) (UniProt Q9Y6N7). The assay is described as follows: affinity purification with mass spectrometry; potential interacting proteins of ROBO1 analysed by mass spectrometry; bait, cells and conditions not told.

Regarding “NEK9 (source not told: hit of the mass spectrometry analysis; partner in the co-IPs of Fig. 3G, H) (from UniProt Q8TD19 1-979) (enzyme)”, the binding entry is given as “binds”.
